The data scatter; read single values as rough.
Tested on: Sindbis virus TE/5'2J-GFP
Experiment: percent infected (GFP+ in RFP+ ISG-expressing cells); higher = more infection (less antiviral activity)
Settings: experiment: primary screen (single well)

| Sequence | percent infected (BHK/HA-Zeo (control)) | percent infected (BHK/NZAP-Zeo (ZAP)) |
| --- | --- | --- |
| MEDPSEPDRLASADGGSPEEEEDGEREPLLPRIAWAHPRRGAPGSAVRLLDAAGEEGEAGDEELPLPPGDVGVSRSSSAELDRSRPAVSVTIGTSEMNAFLDDPEFADIMLRAEQAIEVGIFPERISQGSSGSYFVKDPKRKIIGVFKPKSEEPYGQLNPKWTKYVHKVCCPCCFGRGCLIPNQGYLSEAGAYLVDNKLHLSIVPKTKVVWLVSETFNYNAIDRAKSRGKKYALEKVPKVGRKFHRIGLPPKIGSFQLFVEGYKEAEYWLRKFEADPLPENIRKQFQSQFERLVILDYIIRNTDRGNDNWLVRYEKQKCEKEIDHKESKWIDDEEFLIKIAAIDNGLAFPFKHPDEWRAYPFHWAWLPQAKVPFSEEIRNLILPYISDMNFVQDLCEDLYELFKTDKGFDKATFESQMSVMRGQILNLTQALRDGKSPFQLVQIPCVIVERSQGGSQGRIVHLSNSFTQTVNCRKPFFSSW [PI4K2B] | 95.2% | – |
| MEEDDSYVPSDLTAEERQELENIRRRKQELLADIQRLKDEIAEVANEIENLGSTEERKNMQRNKQVAMGRKKFNMDPKKGIQFLIENDLLKNTCEDIAQFLYKGEGLNKTAIGDYLGERDEFNIQVLHAFVELHEFTDLNLVQALRQFLWSFRLPGEAQKIDRMMEAFAQRYCQCNNGVFQSTDTCYVLSFAIIMLNTSLHNPNVKDKPTVERFIAMNRGINDGGDLPEELLRNLYESIKNEPFKIPEDDGNDLTHTFFNPDREGWLLKLGGGRVKTWKRRWFILTDNCLYYFEYTTDKEPRGIIPLENLSIREVEDSKKPNCFELYIPDNKDQVIKACKTEADGRVVEGNHTVYRISAPTPEEKEEWIKCIKAAISRDPFYEMLAARKKKVSSTKRH [PSCD1] | 98.4% | 97.3% |
| MEEGMNVLHDFGIQSTHYLQVNYQDSQDWFILVSVIADLRNAFYVLFPIWFHLQEAVGIKLLWVAVIGDWLNLVFKWILFGQRPYWWVLDTDYYSNTSVPLIKQFPVTCETGPGSPSGHAMGTAGVYYVMVTSTLSIFQGKIKPTYRFRCLNVILWLGFWAVQLNVCLSRIYLAAHFPHQVVAGVLSGIAVAETFSHIHSIYNASLKKYFLITFFLFSFAIGFYLLLKGLGVDLLWTLEKAQRWCEQPEWVHIDTTPFASLLKNLGTLFGLGLALNSSMYRESCKGKLSKWLPFRLSSIVASLVLLHVFDSLKPPSQVELVFYVLSFCKSAVVPLASVSVIPYCLAQVLGQPHKKSL [G6PC] | – | 94.8% |
| MEEKRRKYSISSDNSDTTDSHATSTSASRCSKLPSSTKSGWPRQNEKKPSEVFRTDLITAMKIPDSYQLSPDDYYILADPWRQEWEKGVQVPAGAEAIPEPVVRILPPLEGPPAQASPSSTMLGEGSQPDWPGGSRYDLDEIDAYWLELINSELKEMERPELDELTLERVLEELETLCHQNMARAIETQEGLGIEYDEDVVCDVCRSPEGEDGNEMVFCDKCNVCVHQACYGILKVPTGSWLCRTCALGVQPKCLLCPKRGGALKPTRSGTKWVHVSCALWIPEVSIGCPEKMEPITKISHIPASRWALSCSLCKECTGTCIQCSMPSCVTAFHVTCAFDHGLEMRTILADNDEVKFKSFCQEHSDGGPRNEPTSEPTEPSQAGEDLEKVTLRKQRLQQLEEDFYELVEPAEVAERLDLAEALVDFIYQYWKLKRKANANQPLLTPKTDEVDNLAQQEQDVLYRRLKLFTHLRQDLERVRNLCYMVTRRERTKHAICKLQEQIFHLQMKLIEQDLCRGLSTSFPIDGTFFNSWLAQSVQITAENMAMSEWPLNNGHREDPAPGLLSEELLQDEETLLSFMRDPSLRPGDPARKARGRTRLPAKKKPPPPPPQDGPGSRTTPDKAPKKTWGQDAGSGKGGQGPPTRKPPRRTSSHLPSSPAAGDCPILATPESPPPLAPETPDEAASVAADSDVQVPGPAASPKPLGRLRPPRESKVTRRLPGARPDAGMGPPSAVAERPKVSLHFDTETDGYFSDGEMSDSDVEAEDGGVQRGPREAGAEEVVRMGVLAS [PHF15] | 96.9% | – |
| MEGAALLRVSVLCIWMSALFLGVGVRAEEAGARVQQNVPSGTDTGDPQSKPLGDWAAGTMDPESSIFIEDAIKYFKEKVSTQNLLLLLTDNEAWNGFVAAAELPRNEADELRKALDNLARQMIMKDKNWHDKGQQYRNWFLKEFPRLKSELEDNIRRLRALADGVQKVHKGTTIANVVSGSLSISSGILTLVGMGLAPFTEGGSLVLLEPGMELGITAALTGITSSTMDYGKKWWTQAQAHDLVIKSLDKLKEVREFLGENISNFLSLAGNTYQLTRGIGKDIRALRRARANLQSVPHASASRPRVTEPISAESGEQVERVNEPSILEMSRGVKLTDVAPVSFFLVLDVVYLVYESKHLHEGAKSETAEELKKVAQELEEKLNILNNNYKILQADQEL [APOL1] | 98.2% | 97.3% |
| MEGAELAGKILSTWLTLVLGFILLPSVFGVSLGISEIYMKILVKTLEWATIRIEKGTPKESILKNSASVGIIQRDESPMEKGLSGLRGRDFELSDVFYFSKKGLEAIVEDEVTQRFSSEELVSWNLLTRTNVNFQYISLRLTMVWVLGVIVRYCVLLPLRVTLAFIGISLLVIGTTLVGQLPDSSLKNWLSELVHLTCCRICVRALSGTIHYHNKQYRPQKGGICVANHTSPIDVLILTTDGCYAMVGQVHGGLMGIIQRAMVKACPHVWFERSEMKDRHLVTKRLKEHIADKKKLPILIFPEGTCINNTSVMMFKKGSFEIGGTIHPVAIKYNPQFGDAFWNSSKYNMVSYLLRMMTSWAIVCDVWYMPPMTREEGEDAVQFANRVKSAIAIQGGLTELPWDGGLKRAKVKDIFKEEQQKNYSKMIVGNGSLS [AGPAT9] | 98.1% | 96.1% |
| MEGDFSVCRNCKRHVVSANFTLHEAYCLRFLVLCPECEEPVPKETMEEHCKLEHQQVGCTMCQQSMQKSSLEFHKANECQERPVECKFCKLDMQLSKLELHESYCGSRTELCQGCGQFIMHRMLAQHRDVCRSEQAQLGKGERISAPEREIYCHYCNQMIPENKYFHHMGKCCPDSEFKKHFPVGNPEILPSSLPSQAAENQTSTMEKDVRPKTRSINRFPLHSESSSKKAPRSKNKTLDPLLMSEPKPRTSSPRGDKAAYDILRRCSQCGILLPLPILNQHQEKCRWLASSKGKQVRNFS [XAF1] | 97.8% | 91.8% |
| MEGSRPRSSLSLASSASTISSLSSLSPKKPTRAVNKIHAFGKRGNALRRDPNLPVHIRGWLHKQDSSGLRLWKRRWFVLSGHCLFYYKDSREESVLGSVLLPSYNIRPDGPGAPRGRRFTFTAEHPGMRTYVLAADTLEDLRGWLRALGRASRAEGDDYGQPRSPARPQPGEGPGGPGGPPEVSRGEEGRISESPEVTRLSRGRGRPRLLTPSPTTDLHSGLQMRRARSPDLFTPLSRPPSPLSLPRPRSAPARRPPAPSGDTAPPARPHTPLSRIDVRPPLDWGPQRQTLSRPPTPRRGPPSEAGGGKPPRSPQHWSQEPRTQAHSGSPTYLQLPPRPPGTRASMVLLPGPPLESTFHQSLETDTLLTKLCGQDRLLRRLQEEIDQKQEEKEQLEAALELTRQQLGQATREAGAPGRAWGRQRLLQDRLVSVRATLCHLTQERERVWDTYSGLEQELGTLRETLEYLLHLGSPQDRVSAQQQLWMVEDTLAGLGGPQKPPPHTEPDSPSPVLQGEESSERESLPESLELSSPRSPETDWGRPPGGDKDLASPHLGLGSPRVSRASSPEGRHLPSPQLGTKAPVARPRMSAQEQLERMRRNQECGRPFPRPTSPRLLTLGRTLSPARRQPDVEQRPVVGHSGAQKWLRSSGSWSSPRNTTPYLPTSEGHRERVLSLSQALATEASQWHRMMTGGNLDSQGDPLPGVPLPPSDPTRQETPPPRSPPVANSGSTGFSRRGSGRGGGPTPWGPAWDAGIAPPVLPQDEGAWPLRVTLLQSSF [PLEKHA4] | 97.7% | 90.1% |
| MEKGPVRAPAEKPRGARCSNGFPERDPPRPGPSRPAEKPPRPEAKSAQPADGWKGERPRSEEDNELNLPNLAAAYSSILSSLGENPQRQGLLKTPWRAASAMQFFTKGYQETISDVLNDAIFDEDHDEMVIVKDIDMFSMCEHHLVPFVGKVHIGYLPNKQVLGLSKLARIVEIYSRRLQVQERLTKQIAVAITEALRPAGVGVVVEATHMCMVMRGVQKMNSKTVTSTMLGVFREDPKTREEFLTLIRS [GCH1] | 96.7% | 87.4% |
| MEKLLCFLVLTSLSHAFGQTDMSRKAFVFPKESDTSYVSLKAPLTKPLKAFTVCLHFYTELSSTRGYSIFSYATKRQDNEILIFWSKDIGYSFTVGGSEILFEVPEVTVAPVHICTSWESASGIVEFWVDGKPRVRKSLKKGYTVGAEASIILGQEQDSFGGNFEGSQSLVGDIGNVNMWDFVLSPDEINTIYLGGPFSPNVLNWRALKYEVQGEVFTKPQLWP [CRP] | 89.8% | 81.3% |
| MEKTCIDALPLTMNSSEKQETVCIFGTGDFGRSLGLKMLQCGYSVVFGSRNPQKTTLLPSGAEVLSYSEAAKKSGIIIIAIHREHYDFLTELTEVLNGKILVDISNNLKINQYPESNAEYLAHLVPGAHVVKAFNTISAWALQSGALDASRQVFVCGNDSKAKQRVMDIVRNLGLTPMDQGSLMAAKEIEKYPLQLFPMWRFPFYLSAVLCVFLFFYCVIRDVIYPYVYEKKDNTFRMAISIPNRIFPITALTLLALVYLPGVIAAILQLYRGTKYRRFPDWLDHWMLCRKQLGLVALGFAFLHVLYTLVIPIRYYVRWRLGNLTVTQAILKKENPFSTSSAWLSDSYVALGILGFFLFVLLGITSLPSVSNAVNWREFRFVQSKLGYLTLILCTAHTLVYGGKRFLSPSNLRWYLPAAYVLGLIIPCTVLVIKFVLIMPCVDNTLTRIRQGWERNSKH [STEAP4] | 98.2% | 90.2% |
| MELEGRGAGGVAGGPAAGPGRSPGESALLDGWLQRGVGRGAGGGEAGACRPPVRQDPDSGPDYEALPAGATVTTHMVAGAVAGILEHCVMYPIDCVKTRMQSLQPDPAARYRNVLEALWRIIRTEGLWRPMRGLNVTATGAGPAHALYFACYEKLKKTLSDVIHPGGNSHIANGAAGCVATLLHDAAMNPAEVVKQRMQMYNSPYHRVTDCVRAVWQNEGAGAFYRSYTTQLTMNVPFQAIHFMTYEFLQEHFNPQRRYNPSSHVLSGACAGAVAAAATTPLDVCKTLLNTQESLALNSHITGHITGMASAFRTVYQVGGVTAYFRGVQARVIYQIPSTAIAWSVYEFFKYLITKRQEEWRAGK [SLC25A28] | 92.9% | 93.9% |
| MELLCCEGTRHAPRAGPDPRLLGDQRVLQSLLRLEERYVPRASYFQCVQREIKPHMRKMLAYWMLEVCEEQRCEEEVFPLAMNYLDRYLSCVPTRKAQLQLLGAVCMLLASKLRETTPLTIEKLCIYTDHAVSPRQLRDWEVLVLGKLKWDLAAVIAHDFLAFILHRLSLPRDRQALVKKHAQTFLALCATDYTFAMYPPSMIATGSIGAAVQGLGACSMSGDELTELLAGITGTEVDCLRACQEQIEAALRESLREASQTSSSPAPKAPRGSSSQGPSQTSTPTDVTAIHL [CCND3] | 97.8% | 94.9% |

Reference: the supplement of paper PMC3353916
